# Primary screen of a compound library

A: 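Whole-parasite assay of Trypanosoma brucei over 72 hours; the read-out is not stated. Compounds at 30 µM. Direction is inferred from retests: higher values go with stronger inhibition. Values scatter widely below zero; nearly all retest evidence comes from the higher of the two concentrations used. Of about 64,000 compounds tested this way, about 940 (1.5%) reached 50% or more in at least one test.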
B: 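Cell assay of Leishmania donovani living inside macrophages; the read-out is not stated. Concentration: 30 µM. Direction is inferred from retests: higher values go with stronger inhibition. Size under these conditions: about 69,000 compounds, about 1,000 of them at 50% or above in at least one test.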

Each number is a percent effect as filed.
The controls that fix the scale are not given in the record; negative values are as filed.
The compounds are a random part of those screened.
Two or more numbers in one place are separate tests of the same structure; such repeats can differ widely.
A dash means the value is not listed here; it may have been measured.

| # | Compound | A | B |
|---|---|---|---|
| 1 | `CC(Oc1ccc(S(C)(=O)=O)cc1)C(=O)NC(N)=O` (stereo unspecified) | -10.66 | 27.6 |
| 2 | `N#Cc1ccnc(N2CCN(CC(O)c3cccc(F)c3)CC2)c1` (stereo unspecified) | 3.511 | 17.73 |
| 3 | `Cc1ccc(CN2CCN(C(=O)c3ccc(Br)o3)CC2)cc1` | -49.56 | 8.047 |
| 4 | `Cc1c(NC(=O)NC(C)CCO)cccc1OC1CCCC1` (stereo unspecified) | -18.05 | -12.65 |
| 5 | `[H][C@]12CC[C@]([H])(CN(S(=O)(=O)N(C)C)C1)N(C(=O)c1cnc(C)cn1)C2` | -10.64 | 3.737 |
| 6 | `CN1C(=O)C2(CC(=O)Nc3c2cnn3C(C)(C)C)c2c(Cl)cccc21` (stereo unspecified) | -28.32 | -11.05 |
| 7 | `c1ccc(NCc2cn3c(n2)CN(Cc2nccs2)CC3)nc1` | -1.88 | 8.199 |
| 8 | `CNC(=O)NC(=O)C(C)N1CCN(C2CCCC2)CC1` (stereo unspecified) | -67.46 | 16.64 |
| 9 | `CCn1cc(NC(=O)NCCN2CCc3ccccc3C2)cn1` | - | 15.95 |
| 10 | `CC(C)Cn1cncc1CNC(=O)c1cccc(CC2CCNCC2)c1` | -40.33 | -27.65 |
| 11 | `O=C(O)C(F)(F)F.O=C(O)C(F)(F)F.[H][C@@]12CCCO[C@]1([H])[C@H](N(C)Cc1ccco1)CN(CCOC)C2` | 13.47 | 20.83 |
| 12 | `COc1ccc(C(=O)N2C[C@@H](CN3CCCCC3)[C@@H](CO)C2)cc1Cl` | 22.63 | 16.91 |
| 13 | `CC(C)(C)c1cnc(CN2CCC(CO)CC2)o1` | 4.914 | 6.317 |
| 14 | `CSCCC(C)(O)CNS(=O)(=O)Cc1cccc(C)c1` (stereo unspecified) | -17.65 | -16.27 |
| 15 | `O=C(NC1CCCCC1)NC1CCCc2c1cnn2CCO` (stereo unspecified) | 61.21 | 4.79 |
| 16 | `O=C(O)C(F)(F)F.[H][C@]12CCN(S(=O)(=O)c3ccc(F)cc3)C[C@@]1([H])OCCN(C)C2` | - | 14.93 |
| 17 | `O=c1[nH]nc(C2CC2)n1-c1cccc(Cl)c1` | -51.49 | 25.17 |
| 18 | `Cc1noc(C)c1CNC(=O)N(C)C1CCN(c2ccccc2)C1=O` (stereo unspecified) | - | 18.81 |
| 19 | `CNCC(=O)N1CCCC(c2nccnc2Oc2cccc(F)c2)C1.Cl` (stereo unspecified) | -12.42 | 10.37 |
| 20 | `CCOc1ccc(C#N)cc1NC(=O)N1CCC(N2CCCC2)C1` (stereo unspecified) | -18.77 | -4.248 |
| 21 | `COc1cc(N2CCC3(CCN(Cc4csc(C)n4)C3=O)C2)ncn1.O=C(O)C(F)(F)F` (stereo unspecified) | -84.03 | 55.45 |
| 22 | `O=C1NCCCCC1Sc1n[nH]c(=O)n1C1CC1` (stereo unspecified) | -31.9 | 41.09 |
| 23 | `[H][C@@]12CC[C@H](Oc3cccc(F)c3)[C@]1([H])CN(C(=O)c1ncccc1C)C2` | 11.58 | 15.29 |
| 24 | `c1ccc(Cc2noc(CN3CCCC3C3CCCCC3)n2)cc1` (stereo unspecified) | -1.587 | -22.98 |
| 25 | `Cc1cnc(C(C)(C)NC(=O)NCc2cccnc2OC(C)C)s1` | 3.454 | 19.39 |
| 26 | `Cc1cccc(N2CCN(C(=O)CCc3c(C)noc3Cl)CC2)c1` | 55.23 | 19.86 |
| 27 | `N#Cc1cccc(N2CCCC3(CCC(=O)N(C4CCCC4)C3)C2)n1` (stereo unspecified) | 5.834 | -46.6 |
| 28 | `COC(C)(C)C(=O)N[C@H]1CN(c2ncccc2C(N)=O)C[C@@H]1C(C)C` | -93.03 | 9.278 |
| 29 | `[H][C@]12CC[C@]([H])(CN(Cc3cscn3)C1)N(C(=O)OC)C2` | 39.19 | 9.106 |
| 30 | `CNS(=O)(=O)Cc1ccc(CNC(=O)c2ccc(C)[nH]c2=O)cc1` | 26.25 | 25.15 |
| 31 | `Cc1cccc(C)c1Nc1noc2c1CN(C(=O)c1ccn(C)n1)CC2` | 17.87 | 21.21 |
| 32 | `CC(C)[C@H](NS(C)(=O)=O)C(=O)NCc1cc(-c2ccco2)nn1C` | -12.58 | 9.655 & 9.384 |
| 33 | `CC(NC(=O)NCC1(N2CCCCC2)CCCCC1)c1nncn1C` (stereo unspecified) | 12.75 | 18.2 |
| 34 | `Cc1ccc(-c2ccnc(N3CCC4(CC3)CNC(=O)C4)n2)c(C)n1` | -47.73 | -1.589 |
| 35 | `CCN1CCOCC2(CCCN(C(=O)c3cnccn3)C2)C1` (stereo unspecified) | -3.956 | 12.81 |
| 36 | `Cc1nccn1-c1nccnc1C1CCCN(C)C1` (stereo unspecified) | 6.206 | 6.911 |
| 37 | `CCN(CC)S(=O)(=O)CC(=O)Nc1ccsc1` | -80.42 | 15.03 |
| 38 | `CCn1cc2c(n1)C(COCC1CC1)CN(c1ccc(C)nn1)C2` (stereo unspecified) | - | 9.735 |
| 39 | `O=C(C1CCOc2ccccc21)N1CCOc2cccc(F)c21` (stereo unspecified) | 0.6948 | 20.14 |
| 40 | `CC(C)c1nnc2n1CC(CNCc1nnc(C(C)(C)C)o1)CC2` (stereo unspecified) | -2.545 | -7.676 |
| 41 | `CCc1nc(C2CCCN(C(=O)c3cccc4cn[nH]c34)C2)no1` (stereo unspecified) | -39.34 | -3.604 |
| 42 | `CC(C)N1CCCC(C(=O)N2CCN(c3cnn(C)c(=O)c3)CC2)C1` (stereo unspecified) | -13.71 | 8.061 |
| 43 | `CN(C)c1cc(CNC(=O)c2ccccc2Cl)ccn1` | -7.742 | -1.431 |
| 44 | `CN(c1ncccc1C#N)C1CCN(CCc2ccccn2)CC1` | -52.95 | 4.843 |
| 45 | `Cn1cc(C2SCC(=O)Nc3c2cnn3C(C)(C)C)cn1` (stereo unspecified) | -20.73 | 1.854 |
| 46 | `[H][C@]12CC=C(CN3CCCn4nc(C(=O)O)cc4C3)[C@]([H])(C1)C2(C)C` | -27.61 | -20.73 |
| 47 | `CC(C)c1cc(NC(=O)CNC2CCCN(c3cccnn3)C2)on1` (stereo unspecified) | 12.71 | 16.98 |
| 48 | `Cc1occc1C(=O)Nc1cc(N2CCNC2=O)ccc1Cl` | -6.664 | 20.18 |
| 49 | `Cc1occc1C(=O)N1CCCN(Cc2nccn2C)CC1` | 4.115 | 32.47 |

Once more, the final 4:

{"compound": "[H][C@]12CC=C(CN3CCCn4nc(C(=O)O)cc4C3)[C@]([H])(C1)C2(C)C", "A": -27.61, "B": -20.73}
{"compound": "CC(C)c1cc(NC(=O)CNC2CCCN(c3cccnn3)C2)on1", "stereo": "stereo unspecified", "A": 12.71, "B": 16.98}
{"compound": "Cc1occc1C(=O)Nc1cc(N2CCNC2=O)ccc1Cl", "A": -6.664, "B": 20.18}
{"compound": "Cc1occc1C(=O)N1CCCN(Cc2nccn2C)CC1", "A": 4.115, "B": 32.47}

Data taken from ChEMBL document CHEMBL3988442, “University of Dundee, Small-Polar-MMV Screening Library” (2021).